Experimental findings from PMC8698288 are described below.

Protein sequences, listed by entry. Tags and fused reporters are not part of them. Lines headed by an entry give the natural chain unless they say otherwise; changes in a name come on top.
UniProt A0A125YV97: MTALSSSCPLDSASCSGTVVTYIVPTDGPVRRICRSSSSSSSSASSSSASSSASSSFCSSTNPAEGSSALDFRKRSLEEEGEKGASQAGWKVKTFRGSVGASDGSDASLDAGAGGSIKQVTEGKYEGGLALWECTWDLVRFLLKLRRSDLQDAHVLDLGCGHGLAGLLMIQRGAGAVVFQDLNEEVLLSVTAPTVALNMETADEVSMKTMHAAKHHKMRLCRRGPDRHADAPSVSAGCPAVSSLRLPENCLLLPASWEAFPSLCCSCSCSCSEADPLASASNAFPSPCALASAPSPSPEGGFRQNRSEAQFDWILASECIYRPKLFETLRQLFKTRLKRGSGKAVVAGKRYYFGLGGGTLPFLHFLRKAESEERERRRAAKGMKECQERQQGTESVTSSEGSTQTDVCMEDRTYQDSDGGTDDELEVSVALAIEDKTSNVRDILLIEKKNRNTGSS
UniProt A0A125YWQ9: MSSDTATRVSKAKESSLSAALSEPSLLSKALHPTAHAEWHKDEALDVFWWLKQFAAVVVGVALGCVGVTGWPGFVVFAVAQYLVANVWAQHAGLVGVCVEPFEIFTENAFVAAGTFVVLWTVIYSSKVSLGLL
UniProt A0A125YJT8: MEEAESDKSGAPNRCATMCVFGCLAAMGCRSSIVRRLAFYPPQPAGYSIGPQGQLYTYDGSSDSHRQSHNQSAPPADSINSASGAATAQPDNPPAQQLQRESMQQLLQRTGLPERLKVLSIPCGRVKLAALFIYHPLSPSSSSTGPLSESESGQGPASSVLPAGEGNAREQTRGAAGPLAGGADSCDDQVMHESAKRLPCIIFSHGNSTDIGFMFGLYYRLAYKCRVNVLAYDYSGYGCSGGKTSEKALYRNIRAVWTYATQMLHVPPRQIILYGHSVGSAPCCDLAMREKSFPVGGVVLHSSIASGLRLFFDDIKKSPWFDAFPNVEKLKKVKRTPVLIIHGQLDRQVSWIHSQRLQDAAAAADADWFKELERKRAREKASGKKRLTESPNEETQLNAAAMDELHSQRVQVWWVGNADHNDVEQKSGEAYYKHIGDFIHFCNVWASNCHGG
UniProt A0A125YWZ9: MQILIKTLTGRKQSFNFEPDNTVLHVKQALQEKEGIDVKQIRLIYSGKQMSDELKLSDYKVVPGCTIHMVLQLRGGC
UniProt A0A125YV39: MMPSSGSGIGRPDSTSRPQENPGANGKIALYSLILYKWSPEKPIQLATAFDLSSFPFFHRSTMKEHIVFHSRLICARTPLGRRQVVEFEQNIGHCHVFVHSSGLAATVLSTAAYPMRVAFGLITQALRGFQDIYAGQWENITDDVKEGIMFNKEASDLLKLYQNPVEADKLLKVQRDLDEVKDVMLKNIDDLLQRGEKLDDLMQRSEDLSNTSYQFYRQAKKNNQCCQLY
UniProt S8EYN6: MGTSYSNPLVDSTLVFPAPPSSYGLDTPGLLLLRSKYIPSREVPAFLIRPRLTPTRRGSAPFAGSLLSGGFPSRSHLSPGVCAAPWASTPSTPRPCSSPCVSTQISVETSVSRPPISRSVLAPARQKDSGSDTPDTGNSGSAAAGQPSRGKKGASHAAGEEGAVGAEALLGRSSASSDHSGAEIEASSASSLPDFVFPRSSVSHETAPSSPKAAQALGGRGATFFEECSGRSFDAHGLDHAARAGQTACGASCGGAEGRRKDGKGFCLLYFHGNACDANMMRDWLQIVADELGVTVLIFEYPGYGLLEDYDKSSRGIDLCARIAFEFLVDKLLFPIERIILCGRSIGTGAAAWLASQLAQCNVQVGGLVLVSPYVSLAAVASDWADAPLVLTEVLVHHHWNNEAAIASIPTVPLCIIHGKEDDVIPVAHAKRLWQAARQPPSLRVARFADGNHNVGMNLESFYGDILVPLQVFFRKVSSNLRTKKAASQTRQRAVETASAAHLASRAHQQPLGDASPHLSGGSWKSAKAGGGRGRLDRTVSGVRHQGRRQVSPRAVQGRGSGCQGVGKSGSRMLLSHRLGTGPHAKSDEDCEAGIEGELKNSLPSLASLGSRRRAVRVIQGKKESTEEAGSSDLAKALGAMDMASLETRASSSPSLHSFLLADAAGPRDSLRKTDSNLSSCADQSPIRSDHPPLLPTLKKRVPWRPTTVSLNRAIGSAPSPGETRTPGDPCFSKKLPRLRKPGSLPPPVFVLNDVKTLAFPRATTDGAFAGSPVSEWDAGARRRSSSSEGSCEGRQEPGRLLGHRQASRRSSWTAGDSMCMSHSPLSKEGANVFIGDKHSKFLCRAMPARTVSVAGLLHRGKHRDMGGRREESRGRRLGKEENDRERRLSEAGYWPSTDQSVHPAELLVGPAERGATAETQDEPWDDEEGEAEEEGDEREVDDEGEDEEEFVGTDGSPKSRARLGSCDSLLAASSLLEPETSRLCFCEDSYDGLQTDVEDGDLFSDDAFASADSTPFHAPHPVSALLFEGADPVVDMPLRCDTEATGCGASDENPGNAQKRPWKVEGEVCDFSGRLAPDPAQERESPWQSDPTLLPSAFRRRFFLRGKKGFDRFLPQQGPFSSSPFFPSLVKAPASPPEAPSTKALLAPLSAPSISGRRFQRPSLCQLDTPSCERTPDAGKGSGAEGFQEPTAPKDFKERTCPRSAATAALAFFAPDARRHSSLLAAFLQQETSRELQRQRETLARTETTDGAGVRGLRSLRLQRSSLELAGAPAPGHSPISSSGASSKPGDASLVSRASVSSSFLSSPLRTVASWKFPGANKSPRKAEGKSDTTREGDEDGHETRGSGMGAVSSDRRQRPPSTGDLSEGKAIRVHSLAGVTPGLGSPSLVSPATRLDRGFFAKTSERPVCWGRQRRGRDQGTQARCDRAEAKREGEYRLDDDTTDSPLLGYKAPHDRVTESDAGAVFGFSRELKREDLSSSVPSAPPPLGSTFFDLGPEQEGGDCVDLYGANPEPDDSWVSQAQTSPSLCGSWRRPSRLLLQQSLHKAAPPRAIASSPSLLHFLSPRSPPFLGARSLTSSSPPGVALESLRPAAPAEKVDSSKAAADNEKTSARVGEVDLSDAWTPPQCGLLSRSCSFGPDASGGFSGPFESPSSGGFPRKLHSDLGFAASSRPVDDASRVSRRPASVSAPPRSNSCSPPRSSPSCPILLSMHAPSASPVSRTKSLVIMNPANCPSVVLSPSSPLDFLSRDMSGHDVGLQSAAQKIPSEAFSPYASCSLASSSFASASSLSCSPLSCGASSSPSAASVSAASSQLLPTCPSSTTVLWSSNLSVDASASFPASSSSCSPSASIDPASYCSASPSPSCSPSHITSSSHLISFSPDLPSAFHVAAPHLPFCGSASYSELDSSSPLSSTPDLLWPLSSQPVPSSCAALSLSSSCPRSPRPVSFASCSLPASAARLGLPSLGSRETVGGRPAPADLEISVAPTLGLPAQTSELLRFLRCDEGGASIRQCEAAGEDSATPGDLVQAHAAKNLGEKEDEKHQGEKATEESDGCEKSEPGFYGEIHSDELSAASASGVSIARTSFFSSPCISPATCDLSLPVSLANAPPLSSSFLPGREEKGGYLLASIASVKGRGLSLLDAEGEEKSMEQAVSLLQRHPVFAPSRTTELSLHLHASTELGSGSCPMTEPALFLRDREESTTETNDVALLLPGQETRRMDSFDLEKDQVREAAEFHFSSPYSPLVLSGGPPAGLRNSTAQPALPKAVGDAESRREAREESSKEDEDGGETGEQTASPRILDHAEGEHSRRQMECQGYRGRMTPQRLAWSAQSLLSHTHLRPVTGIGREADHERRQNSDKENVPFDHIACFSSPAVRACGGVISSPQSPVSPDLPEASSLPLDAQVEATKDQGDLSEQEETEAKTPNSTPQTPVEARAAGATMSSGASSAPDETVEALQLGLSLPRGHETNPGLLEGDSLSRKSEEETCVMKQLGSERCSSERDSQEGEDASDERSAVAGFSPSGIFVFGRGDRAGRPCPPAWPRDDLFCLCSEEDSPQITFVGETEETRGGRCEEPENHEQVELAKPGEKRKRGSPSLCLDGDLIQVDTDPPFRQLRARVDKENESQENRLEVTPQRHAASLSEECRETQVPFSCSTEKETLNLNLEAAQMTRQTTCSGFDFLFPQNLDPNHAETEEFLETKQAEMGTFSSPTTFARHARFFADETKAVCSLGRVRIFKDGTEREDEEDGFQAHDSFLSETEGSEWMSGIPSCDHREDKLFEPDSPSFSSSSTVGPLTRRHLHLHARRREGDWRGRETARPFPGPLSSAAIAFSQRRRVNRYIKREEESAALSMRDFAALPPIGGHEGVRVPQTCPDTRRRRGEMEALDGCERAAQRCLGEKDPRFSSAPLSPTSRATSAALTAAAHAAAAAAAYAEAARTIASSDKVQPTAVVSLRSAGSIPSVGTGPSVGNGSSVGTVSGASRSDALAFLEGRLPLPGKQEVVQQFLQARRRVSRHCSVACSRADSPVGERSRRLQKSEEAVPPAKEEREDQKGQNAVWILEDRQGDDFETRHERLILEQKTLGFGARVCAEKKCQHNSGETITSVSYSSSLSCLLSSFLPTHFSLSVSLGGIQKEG
UniProt S8GCY7: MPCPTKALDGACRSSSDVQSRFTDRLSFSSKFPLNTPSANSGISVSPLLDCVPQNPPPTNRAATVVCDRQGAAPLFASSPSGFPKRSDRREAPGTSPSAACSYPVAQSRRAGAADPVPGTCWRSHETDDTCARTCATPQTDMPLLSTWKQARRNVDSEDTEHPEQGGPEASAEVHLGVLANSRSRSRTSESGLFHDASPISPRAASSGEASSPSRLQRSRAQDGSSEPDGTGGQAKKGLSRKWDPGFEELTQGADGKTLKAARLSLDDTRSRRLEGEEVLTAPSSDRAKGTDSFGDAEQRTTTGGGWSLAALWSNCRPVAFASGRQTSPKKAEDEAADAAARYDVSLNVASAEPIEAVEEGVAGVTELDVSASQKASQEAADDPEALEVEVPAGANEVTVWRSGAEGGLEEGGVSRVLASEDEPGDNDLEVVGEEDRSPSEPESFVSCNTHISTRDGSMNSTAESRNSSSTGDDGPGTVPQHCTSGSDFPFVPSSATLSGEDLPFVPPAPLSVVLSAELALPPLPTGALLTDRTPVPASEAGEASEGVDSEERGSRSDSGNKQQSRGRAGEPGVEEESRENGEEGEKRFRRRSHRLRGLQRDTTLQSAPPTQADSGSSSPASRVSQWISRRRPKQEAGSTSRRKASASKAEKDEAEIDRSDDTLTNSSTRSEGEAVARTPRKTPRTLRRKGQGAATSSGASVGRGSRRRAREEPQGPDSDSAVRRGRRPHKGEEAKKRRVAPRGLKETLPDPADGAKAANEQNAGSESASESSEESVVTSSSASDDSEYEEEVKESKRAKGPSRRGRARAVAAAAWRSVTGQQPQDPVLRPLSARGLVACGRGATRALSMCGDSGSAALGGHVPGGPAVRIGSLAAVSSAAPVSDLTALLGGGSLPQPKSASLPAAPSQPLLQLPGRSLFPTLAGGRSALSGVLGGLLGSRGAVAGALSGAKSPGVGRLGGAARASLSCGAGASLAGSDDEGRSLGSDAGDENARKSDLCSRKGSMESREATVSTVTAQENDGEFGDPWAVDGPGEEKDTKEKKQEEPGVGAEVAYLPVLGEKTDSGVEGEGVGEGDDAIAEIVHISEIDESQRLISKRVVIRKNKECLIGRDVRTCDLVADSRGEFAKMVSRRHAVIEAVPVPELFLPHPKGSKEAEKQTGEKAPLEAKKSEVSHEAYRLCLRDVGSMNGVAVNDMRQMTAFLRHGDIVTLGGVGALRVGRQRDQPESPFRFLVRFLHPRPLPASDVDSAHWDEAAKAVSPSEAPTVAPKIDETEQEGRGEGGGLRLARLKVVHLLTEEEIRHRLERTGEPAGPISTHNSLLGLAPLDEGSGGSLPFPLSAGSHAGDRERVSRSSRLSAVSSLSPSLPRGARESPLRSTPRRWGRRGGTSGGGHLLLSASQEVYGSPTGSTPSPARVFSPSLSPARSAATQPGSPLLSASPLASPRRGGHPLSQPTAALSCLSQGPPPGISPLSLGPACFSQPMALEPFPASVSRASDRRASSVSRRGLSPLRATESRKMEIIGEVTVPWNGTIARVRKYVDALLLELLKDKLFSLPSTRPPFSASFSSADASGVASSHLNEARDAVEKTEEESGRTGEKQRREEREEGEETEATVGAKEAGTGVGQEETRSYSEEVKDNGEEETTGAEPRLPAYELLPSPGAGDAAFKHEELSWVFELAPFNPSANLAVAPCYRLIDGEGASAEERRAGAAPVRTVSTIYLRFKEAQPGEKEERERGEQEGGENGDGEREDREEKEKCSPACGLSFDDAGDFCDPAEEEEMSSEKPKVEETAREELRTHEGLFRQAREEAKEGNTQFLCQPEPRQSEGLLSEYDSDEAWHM
UniProt A0A125YH38: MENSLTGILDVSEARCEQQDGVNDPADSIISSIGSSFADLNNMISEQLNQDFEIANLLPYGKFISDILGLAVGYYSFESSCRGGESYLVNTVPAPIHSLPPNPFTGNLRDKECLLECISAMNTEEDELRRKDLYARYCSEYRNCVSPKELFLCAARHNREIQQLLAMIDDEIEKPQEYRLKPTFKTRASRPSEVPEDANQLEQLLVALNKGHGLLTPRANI

Results are given in words; binding and its absence hold for the method and conditions named. Binding seen in cells or lysates may run through a third protein. These calls come from enrichment with a bait or labelling near it, and not all partners need be listed.

The labels stand for the following.
B1: Uncharacterized protein TGME49_234560 (protein, UniProt S8EWL5 1-1285)
chain: MATSLHSRLVAAMPRNPAELSRAFDLDDMVQKKPRRQSSGVVVPGGARGLVVRTYRGILDGSEDEDPDSVNPEAHEVQVAWADGSVENIAREQIELLDRPFYAGDLVVGQDGKSLGLVVEVKQIADVRLVSSRATRRPSALAGRASRSSVLSVDSVSSFSSRLATRGPRGVSAAALPLADPLEPVRLEGLQINALGSLPLPHEPPLLRPLQAFEVGTPVIKGGHLGAVINCKVDYLVKLDSGHEFTLEHGMEGVRPDPRQGYPTEAYGLFPSQRIYVTGEWLRDFQEQLQTRQERRERAGEAEEDTVEAHRLCRGVVKSFAVRRVKVNWLLEDSETWSSAPPSQPLASQATEHDCSELLPLQQFVLRLGQPVYVNIRHNPTASLLAAVNPPLNGSSLNASAVHSSPPNASSLNASSSNGSSVNISAVNASLAPCVFQSVLPSSEAGVSPELKRSALDAAETVSEDPHSVSNPTLITNSSSSSSSSPASSSSSSLSCSSSASPEDPLYRLGVVESVSTRCCVLWEDGRVSQEAGRALTPVNVDRVPLAHSEFVVGLAILPHMFVTKKFTQDDLESAAREEEAAETRARAAGPAWWNAPYFGDTELGPHTSVPDELKAVEVVRALSKVSREIGIAEYLGRTPLEVSPFDSHSRDRAHRSDRGAERAGDRATDRGSERAGERGEREQRERGQERRGGFPAGRRRERRGRDGELRQGDRETGQPPRETDVAETRPAAEEHNPEQPGQERGENGDRANERGDASVEQGGGVSSDEDAWEDCGSEEGSAESEANGSARQEPLGIREARLPCGLGPGLVTGASVRDAVGHLQELFQCLQDAVGPANLGLPIYKRVPVLRSVPVSDEGEERRDPRAEGSGDAGAEPRGTPEPSARSEANAESAQKANPTWSRHSSDGSSDASSSCPRAVVRRSRSPEAEAPARLHALVGRMESGEWRRELFQLVEFVRMASPSAAGDGSWALDTAQMQGVLNCVMALRGEAALAALNRARGREAREVGVVVRVDSKEKQATVAWLADPQAFFDRARRLREKMAETDEERSGKDLARVTERQLARFGIAMWCGGRQEPPRDDAAGALYTTTAEDYTADEVAELVRMETVPLAELSPLSRFLFFPGDCALLVDDAARLAGESKSGRDDESSSLEQRENAKKDKVYLQVLAACGGLVWCRTFDGRVAPFAPTELVPLNTRWCDMELSYEESSDEESEYSEADSDGSSEDDSEDRETQSYESSDLDEWGSDSGSTNVTDLSDPVGNGPSRCSSVERMSDRSQDVAGG
B2: Heat shock protein hslv, putative (TGME49_272230) (protein, UniProt S8GJ86 1-338)
chain: MAVCAAFRRFRLDGPLCSSAFPGRSRGATWMLSSACCSKRNYSASPQTPFSFQNGRAVCNRAVVGDSSSSSSARRFFSASSKFPFAAPSLSQSPSRFSGTRRLYTYGAPAAGGVEHCAGFDRSRFTASPFVPPRHATTILCVRKGDQVCVAGDGMVSQGQMIVKPNARKVRRLQDGVVCGFAGATADCFTLLEKLEAKLEEYPGQLLRSCVELAKQWRTDRYLRHLEAVLIVADKKMSLEVSGVGDVLESHDGILGVGSGGPYAVAAARALYDIDGLSAHEICKRSMAIAASMCCHTNDRVIFEVLENEAKPMETPQSSPVSTDVRQISDSSSAQTSP
B3: Peptidase family M3 protein TGME49_272670 (protein, UniProt S8GJE2 1-1094)
chain: MHARSGLLLRGVQAAGGRAHHQRSDSLPSVLVMRSRRSLPPRNSLSASVSSPPVFFLPRSLCRNNSSGTRSSHSSSLTFHRVPPASSTLERRTLRRPFASLSRLSHSGQSEWRRQPHGLCSSPPCFSSTFPTPSPPRKPGLFSFLSGLTQISSRGSRAAGSDELRPGLLQLPGVHTPEQLVRLGRQAVADCEAFLATGGAPTSSSSGSREEGKLSSPSSCPSSASSGDASDVSSSWKEARRAVQALDAVSNTLCKVADGSELLRQVHPDPRWKQAGAEVVAHVQDFMSRVNVNNKVYDKLHRLTEALGDSLSREAQAPSCLSLPSSSTSASSSPSTSYPSSSSLPSSLSSSLSASPSSASSEDEGNMAEGDEGAGVSSAQTENAEKHRLTTEEILVLRSMRDAMEQQGVFLEPQVKDRYLRLLTEEATLAAGIAERQETPQSTEGFLVSTDVLLASGVPASLLAQLQGEKRSFFSPRRRPLCRRGGSGGDQVLVAAHSELAHVILRQSADSGLRREVYELQRLPGKDDKETEKQLLRLLHLRQELAKLRGYPTWTAYAQRDGILKTPDKINAFLSRLLDALRPGVESDLKTLSVFGASSGLLRDAKGLDPWDLPFLLRAYSVRTPDGSTGARSISIRDLLEGMQSVVERLLGLRFVRAPTAKGETWHWSVLRYELHEAPSSRASRLFSFSPSSSASPPSSSLDASSSSLRGVLYLDLWARPSKTRLLAQFTVRGSKRLSYAHGQGWRLGGPLWLSAVQRLSREGAASEDEASATATVAVEEELRQIPCAALVCSLPPPPEVDMTQPTGPDVDRLLEATSLSASLTRSLLHECGHVLHSLLSETELQHLSGTRGAVDFAEFPSNLFEHFSAPLLDGYLASPTRRARPALGSDGRGKACNFAHLGALQLLLHACVDQAFYSFVPGVSELPPCSGDARAPSPPPEAVDAQLAALRGCLDTAFSRHHWLAGDPRPGVTEQPICDVVGRPQMARFEHLVHYGGSYFCYLLCRVMSSFAWQHAFAKDPFDRETGKRLHAILRRGSIDCSLRPILELAGPGVLSETQKEQLLNNPHLLPVEPFLEELHADDASAAAELPFP
B4: Thiamine diphosphokinase TGME49_215250 (protein, UniProt S8G4A8 1-816)
chain: MRADDAAIPSSRPQPSNSLVTQRSLLSSSCFFFFFLLFVFFFLSAVVPSPLAFRDARAAPLHLGTRSVKMRLLAQCLGDRRSSLSLHPPPVFAASVSAKRLNRTSEDKAGHSIKSKERKRGENSRGESQWGEHPRGEGQEIKESSLCNTEQRGNAHSQESFKIYTLLACASPLFLSRLSYGLFPSAFLPAAFFSPYESRTFFSSAHRLASQLTPSLVTPTTMPRIRFTAAGSSFSQTFRTPSCSSYRHRLYSSHRLFFPRPSSVPLSSPRSPFPLICPPSFSCYTLPLTSLPCSSRSCSSLAPSWFAASRCQPAPLSPSLRFPDTVSRRHWEEASFTMPASGVRSTPAEVSPRFSRAPCPLLFCPSPPRKEGGLACTPQRARNLTTAVKHEETENLRDLRLLEQWFLPASPSSSLHSSCPPSSSPPSLSSSSSPPSSSYSSSSPSARLFVLVLNRPLPAYAQRLLASCTSYVVSDGGGNALLELFQKEEEAARRARQADGLQEAADSGCHEAARSCEVFGEEDPKSSETQDGRPGSCVDWRDKEGRPANRRGATKLPEALCGDLDSLSDEAKEYFETRGVPVLWWEDQDLPDVEKAWRLLLAPKRFSSNDVVIILGAIGGRLDHTLCAIHVLYKLTAEHEAAEARAKAVEKREGNGEESREGQRGNATPASGKSAADGSGVSPPCRPPARVGPLPQIYLLGEDSLCFLVSKGRTRVIPSDLLITRQCALIPCGEAVSGVTTEGLRWNLTPDMRLNFGEFISTSNQISEEVLASAKSRTDASCGVSIDAAMPLLWYSQMRLQPSGAFEPPLEKSHES
B5: Uncharacterized protein TGME49_271600 (protein, UniProt S8G9T3 1-504)
chain: MTDVFDRPPDDYSKSRGIQITMIPTEREGRQPEEADGRLPEQHARSSSKVHDGGHCTEAGDMVDWSREQAIANQRNDKHENFLSSGGREDALPFACEEDMPEGGLQAHDEADNRATEAKLGSSLSSFSSLEEAFLTSLDVISSLRDAVTLLLRAQGVPTEGEGRHQQLNDYEQNVSRKQAMDVMVSTGAFSCHPQAYESLLKTGERTKGGKRLPGGESPGIANCVGIIADEHMSREEHAGAVKADRREHPCLTETVQDKISSSRHPAGEQERRRGTLECCTHSLNSDYELSICKALLMLQHIGGPEESKPMGVDPPLGGFPLLSQERGSFPLGVVDDGGPAHLRQGRQRSPELEPIATQPLSQHLRTTTDGAGDRHAGAEACCSSFDQLQAMRIRGKAGDGAPASDLGLSFASFTLDKMKNSVDQSETKKHVRTVDLMQMLLKVRLLRQAHLLLRADVLVMRKQQGLQQERLNRALQAAVKRHESERDSLLCRLQKLASLLQKK

This assay deals with FLAG-BirA*-MOB1 (Toxoplasma gondii MOB1 fused to the C-terminal end of FLAG-BirA*) (Toxoplasma gondii). Briefly: proximity labelling; BioID: FLAG-BirA*-MOB1 (control: FLAG-BirA*) tachyzoites in HFF cells, 150 µM biotin for 56 h; lysate in sucrose-based lysis buffer on agarose-streptavidin beads overnight at 18 °C; nanoLC-MS/MS; three biological replicates.
As to “Uncharacterized protein TGME49_312410 (from UniProt A0A125YV97 1-456)”, the binding result is “binds”.
The same measure for “Uncharacterized protein TGME49_222090 (from UniProt A0A125YWQ9 1-133)”: “binds”; for “DEAD/DEAH box helicase domain-containing protein TGME49_260450 (from UniProt S8GCG2 1-1841)”: “binds”; for “AB hydrolase-1 domain-containing protein TGME49_223510 (from UniProt A0A125YJT8)”: “binds”.
The same measure for “Ubiquitin family protein TGME49_254600 (from UniProt A0A125YWZ9 1-77)”: “binds”; for “Uncharacterized protein TGME49_268320 (from UniProt S8F435 1-2061)”: “binds”.
The same measure for “SNARE protein TGME49_215420 (from UniProt A0A125YV39 1-230)”: “binds”; for “Uncharacterized protein TGME49_309890 (from UniProt S8EYN6 1-3142)”: “binds”.
On to “DNA repair protein RAD51 (from UniProt A0A125YQJ7 1-354)”, for which the binding result is “binds”.
The same measure for “Aspartyl aminopeptidase TGME49_297970 (from UniProt A0A125YW18 1-508)”: “binds”; for “Uncharacterized protein TGME49_309050 (from UniProt A0A125YUF0 1-784)”: “binds”; for “FHA domain-containing protein TGME49_262780 (from UniProt S8GCY7 1-1843)”: “binds”.
Take “Anaphase-promoting complex subunit1 (from UniProt S8ESM4)”: the binding result was “binds”.
“Eukaryotic translation initiation factor 2A (from UniProt S8GDZ2 1-1821)”: the binding result was “binds”.
For the molecule “Phosphofructokinase domain-containing protein TGME49_281400 (from UniProt S8F3K1 1-3562)”, the binding entry was “binds”.
For “Mediator complex subunit MED8 (from UniProt A0A125YH38)” the value was “binds”; for “Uncharacterized protein TGME49_210345 (from UniProt S8F0M9 1-3457)”, “binds”.
Regarding B1, the binding result is recorded as “binds”.
Regarding B2, the binding entry is on record as “binds”.
The same measure for B3: “binds”.
For B4 the value was “binds”; for B5, “binds”.
